Earlier results as cited in patent US9227980B2, “Methods for the purification of cucurbituril” (CAMBRIDGE ENTERPRISE LIMITED, priority 2009, dated 2016).
Some of these results come from one statement about several compounds together. At least one compound was matched to its structure with a doubt left.

## O=C1N2CN3C(=O)N4CN5C(=O)N6CN7C(=O)N8CN9C(=O)N%10CN1C1C2N2CN%11C(=O)N(CN%12C(=O)N(CN%13C(=O)N(CN%14C(=O)N(CN1C2=O)C%10C9%14)C8C7%13)C6C5%12)C4C3%11 (stereo not shown) [CB[5]]
  solubility in water: 20 to 30 mM
